Source: paper PMC3529859 (Leukemia, 2012)

Key:
Type in all cases: cell-based
HMC 1.1 cells = test: CyQuant cell proliferation assay; conditions: Homo sapiens, 72 h, read-out: IC50 HMC 1.1 proliferation
HMC 1.2 cells = test: CyQuant cell proliferation assay; conditions: Homo sapiens, 72 h, read-out: IC50 HMC 1.2 proliferation
[1] = system: FcεRI-mediated degranulation of primary HuMCs; test: FcεRI-mediated degranulation of HuMCs; conditions: Homo sapiens, read-out: IC50 FcεRI-mediated degranulation

IC50 [1]: 21 nM
SMILES: CO[C@@H]1[C@H](N(C)C(=O)c2ccccc2)C[C@H]2O[C@]1(C)n1c3ccccc3c3c4c(c5c6ccccc6n2c5c31)C(=O)NC4 [PKC 412]
IC50 (HMC 1.1 cells): 135 nM
IC50 (HMC 1.2 cells): 138 nM
